The campaign covered roughly 220,000 compounds. About 2,400 (1.1%) were called active. Inconclusive results, whose numbers are uncertain, are shown with a selection of clear calls. The call rests on the fitted dose curve; in most records, active means well fitted inhibition curve with a large enough effect; inconclusive means small, poorly fitted or top-dose-only effect, or effect the other way; inactive means no such curve, though single readings can be large or run the other way. A potency beside an inconclusive call is a rough fit, not a confirmed value.
Assay: qHTS Multiplex Assay to Identify Dual Action Probes in a Cell Model of Huntington: Aggregate Formation (GFP); further: nearly all actives have a fitted effect of over 60% in size
Conditions: PC12 HttQ103-GFP aggregates, Acumen cytometry, 40 h; activity change, negative = inhibition: at 46.1 µM (top of the series) unless noted
Method in brief: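 Compounds (qHTS titration) were added to PC12 cells expressing an ecdysone-driven HTT exon 1 Q103–GFP fusion after induction with 100 nM tebufenozide. Aggregate formation was measured as GFP objects in cell lysates.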
On the % scale 0 is the no-effect control and ±100 the full control effect; potency means the concentration at half of the fitted maximal effect.

SMILES | Potency | activity change, negative = inhibition
CC1CCCN(C(=O)CN2CCN(C(=O)c3ccco3)CC2)C1 (centres undefined) | inactive | –
Cc1cc(C(F)(F)F)n(-c2nc(C(=O)NN)cs2)n1 | inconclusive: 39.8 µM [inhibitor, partial curve, poor fit] | –
COc1ccc(Sc2nc(-c3ccccn3)ncc2OC)cc1 | inconclusive: 35.5 µM [inhibitor, single point] | –
Fc1ccccc1OCC1CCCN(Cc2nc(CC3CC3)no2)C1 (centres undefined) | – | inactive: -7.07% [at 9.22 µM]
O=C1Nc2ccccc2Oc2cc([N+](=O)[O-])cc(Oc3ccccc3)c21 | inconclusive: 8.91 µM [inhibitor, partial curve] | –
CC1(C)CC(=O)C(=CN2CCN(C(=O)c3ccco3)CC2)C(=O)C1 | inactive | –
CCOc1ccccc1N(CC(=O)NC1CCCC1)C(=O)CCCC(=O)Nc1ccccn1 | inconclusive: 1.41 µM [inhibitor, partial curve] | –
O=c1cc(CN2CCN(c3ccccc3F)CC2)c2cc3c(cc2o1)CCCC3 | active: 0.631 µM | –
COc1ccc(C(=O)NN(C)c2nc(C(F)(F)F)nc3ccccc23)cc1 | inconclusive: 35.5 µM [inhibitor, single point] | –
CN(C)c1ncnc2c1ncn2C1OC(CO)C(O)C1O (centres undefined) | active: 4.47 µM | –
O=C(NCCN1CCN(c2ccccc2)CC1)C1CCN(S(=O)(=O)N2CCOCC2)CC1 | inactive | –
O=C(c1ccc(Cn2cc(Cl)cn2)o1)N1CCN(Cc2ccc3c(c2)OCO3)CC1 | inconclusive: 35.5 µM [inhibitor, single point] | –
CCCc1cc(C(=O)NNC(=S)NC(C)c2ccccc2)cs1 (centres undefined) | inconclusive: 10 µM [inhibitor, partial curve] | –
Cc1noc(C)c1COc1ccc(C(=O)OCC(=O)N2CC(=O)Nc3ccccc32)cc1 | inconclusive: 10 µM [activator, partial curve] | –
O=C(NCCCO)NC12CC3CC(CC(C3)C1)C2 | inconclusive: 3.98 µM [activator, partial curve] | –
O=[N+]([O-])c1cccn2cc(-c3ccc(Br)cc3)nc12 | inconclusive: 15.8 µM [activator, single point] | –
N/C(=N\OC(=O)CCc1ccccc1)c1ccc(Cl)cc1 | inconclusive: 35.5 µM [inhibitor, single point] | –
CCN(CC)S(=O)(=O)c1cc([N+](=O)[O-])ccc1NNC(=O)Nc1ccc(F)cc1 | inconclusive: 25.1 µM [inhibitor, single point] | –
Cc1cc(=O)[nH]c(SCC(=O)NC(C)C2CC3CCC2C3)c1C#N (centres undefined) | inconclusive: 25.1 µM [inhibitor, single point] | –
Cc1nc2ccccc2c(=O)n1/N=C/c1ccccn1 | – | inactive: -5.64% [at 9.22 µM]
CC(C1CC1)N(Cc1ccccc1)C(=S)Nc1cccc(C(F)(F)F)c1 (centres undefined) | inconclusive: 20 µM [inhibitor, single point] | –
CCN(C(=O)Cn1cnc2cc([N+](=O)[O-])ccc2c1=O)C1CCS(=O)(=O)C1 (centres undefined) | inactive | –
COc1ccccc1-c1cc(-c2ccccc2)nc(SC(C(N)=O)c2ccccc2)c1C#N (centres undefined) | active: 11.2 µM | –

SMILES | Potency | activity change, negative = inhibition
CCN1C(=C(C#N)C#N)C=Cc2cc(C)ccc21 | inactive | –
C=CCN=c1scc(C)n1/N=C/c1ccc(O)c(O)c1 | inconclusive: 10 µM [inhibitor, single point] | –
CCS(=O)(=O)N1CCC(C(=O)N2CCc3ccccc3C2)CC1 | inconclusive: 15.8 µM [inhibitor, single point] | –
S=C(Nc1ccc2nsnc2c1)N1CCCC1 | – | inactive: -17.6% [at 9.22 µM]
CCN(CC(=O)N1CCN(C)CC1)S(=O)(=O)c1ccc(Cl)cc1 | inconclusive: 0.562 µM [inhibitor, full curve, poor fit] | –
CCN(CC)c1ccc(/C=N/N2CCN(Cc3ccc(C)cc3)CC2)c(O)c1 | active: 0.631 µM | –
CCNc1nc(Oc2ccc(Cl)cc2Cl)cc(C(F)(F)F)n1 | inconclusive: 25.1 µM [inhibitor, single point] | –
Cc1ccc(SCCNC(=O)c2ccc(C)c(S(=O)(=O)Nc3ccccc3C)c2)cc1 | active: 17.8 µM | –
COc1ccc(NC(=O)CC2(CC(=O)O)CCCC2)cn1 | inactive | –
COC(=O)c1ccccc1NC(=O)CSc1nnc(-c2cccc(NC(C)=O)c2)n1C | inconclusive: 5.62 µM [activator, single point] | –
Cc1nnc(-c2cnn(-c3ccccc3)c2N)n1Cc1ccncc1 | inactive | –
O=C(Cc1ccc(-n2cccc2)cc1)NCc1ccccc1Cl | inconclusive: 35.5 µM [activator, single point] | –
CC(C)NC(=O)c1ccccc1NC(=O)Cc1ccc(Cl)cc1 | inconclusive: 0.501 µM [activator, full curve, poor fit] | –
CCn1ncc(C2=NOC(C(=O)Nc3c(C)n(C)n(-c4ccccc4)c3=O)C2)c1C (centres undefined) | inconclusive: 3.16 µM [activator, partial curve] | –
COc1ccc(S(=O)(=O)N2CCCCC2C(=O)O)cc1OC (centres undefined) | inconclusive: 20 µM [activator, partial curve] | –
CC1(C)OC(=O)C(=NNc2ccccc2)C(=O)O1 | inconclusive: 12.6 µM [activator, single point] | –
O=C(c1ccc2c3c(cccc13)CC2)C1CCCN(C(=O)c2cccnc2)C1 (centres undefined) | inconclusive: 1.26 µM [inhibitor, single point] | –
Cc1ccc(-c2ccc(/C=N\NC(=O)C3C(=O)NCC3c3ccccc3)o2)cc1Cl (centres undefined) | inconclusive: 35.5 µM [inhibitor, single point] | –
CCCN=C(N)/C(C(=O)OCC)=C(\O)c1ccc(OC)cc1 | inconclusive: 2.82 µM [inhibitor, partial curve] | –
Cn1cc(C(=O)c2ccc(Cl)cc2Cl)cc1C(=O)N/N=C(\N)COc1cccc(C(F)(F)F)c1 | inconclusive: 11.2 µM [inhibitor, partial curve] | –
COc1ccc(S(=O)(=O)N2CCN(c3cccc(C)c3C)CC2)cc1 | inconclusive: 35.5 µM [inhibitor, single point] | –
S=C(NCc1ccc(Cl)cc1)NC12CC3CC(CC(C3)C1)C2 | inconclusive: 35.5 µM [inhibitor, single point] | –
CCOC(=O)c1c(N)ssc1=S | inactive | –

SMILES | Potency | activity change, negative = inhibition
Oc1[nH]c2ccc(Br)cc2c1N=NC(=S)N1CCOCC1 | inconclusive: 1.26 µM [inhibitor, single point] | –
Cc1ccc(C(=O)Nc2ccc(O)cc2C(=O)O)cc1 | inconclusive: 0.562 µM [inhibitor, full curve] | –
COc1cccc(C(C)NC(=O)Nc2cccc(C(F)(F)F)c2)c1 (centres undefined) | inconclusive: 3.16 µM [inhibitor, single point] | –
COc1ccc(NS(=O)(=O)c2cn(C)c(=O)n(C)c2=O)cc1 | – | inactive: -31.4% [at 9.22 µM]
Cc1ccc(S(=O)(=O)Nc2cc(Cl)c(O)cc2C)cc1 | inconclusive: 14.1 µM [inhibitor, partial curve] | –
Cc1cc(Cl)ccc1NC(=S)NCc1ccco1 | inconclusive: 5.62 µM [inhibitor, single point] | –
Cc1ccc(OCCN2C(=O)S/C(=C\c3ccc(C)o3)C2=O)cc1 | inconclusive: 2.82 µM [inhibitor, partial curve] | –
COc1ccc(Nc2ccc3c(c2)=NC2(CCCCC2)[N+]=3[O-])cc1 | inconclusive: 35.5 µM [inhibitor, single point] | –
CC1=NN(c2ccccc2)C(=O)/C1=C\C=C1/N(C)c2ccccc2C1(C)C | inconclusive: 11.2 µM [inhibitor, partial curve, poor fit] | –
O=C(O)COn1c(-c2ccccc2)nc2ccc(Cl)cc21 | inconclusive: 0.562 µM [activator, full curve, poor fit] | –
O=C1c2ccccc2NC(c2ccc(Cl)cc2Cl)N1Cc1ccccc1 (centres undefined) | inconclusive: 14.1 µM [inhibitor, single point] | –
O=C(CN1CCC(Cc2ccccc2)CC1)NC(=O)NC1CCCCC1 | inconclusive: 35.5 µM [inhibitor, single point] | –
Cc1cc(C)n(-c2nc(Nc3ccccc3C(F)(F)F)nc(-n3nc(C)cc3C)n2)n1 | active: 10 µM | –
C=CCn1c(O)c(N=NC(=S)Nc2ccc(OC)c(Cl)c2)c2ccccc21 | inconclusive: 14.1 µM [inhibitor, partial curve] | –
Cc1ccc2c(c1)c1nnc(SCC(=O)Nc3ccccc3C(F)(F)F)nc1n2CC(=O)O | inconclusive: 5.62 µM [activator, single point] | –
O=C(CN1C(=O)CCC1=O)Nc1nc(-c2ccc(Oc3ccccc3)cc2)cs1 | inactive | –
Brc1ccc(-c2ncc3ccccn23)cc1 | – | inactive: 0.885% [at 9.22 µM]
Cn1c(=O)cc(SCC(=O)NCCCN2CCN(c3ccc(F)cc3)CC2)c2ccccc21 | inconclusive: 15.8 µM [inhibitor, single point] | –
COc1cccc(-n2c(SCC(=O)N3c4ccccc4CC3C)nnc2-c2ccco2)c1 (centres undefined) | inactive | –
CC1CCN(C(=S)c2cn(Cc3ccccc3F)c3ccccc23)CC1 | active: 15.8 µM | –
COCc1cc(=O)[nH]c(-c2ccccc2OC(F)(F)F)n1 | – | inactive: -4.7% [at 9.22 µM]
CC(OC(=O)c1ccccc1Oc1ccccc1)C(=O)NC1CC1 (centres undefined) | inconclusive: 6.31 µM [inhibitor, single point] | –
CCn1c(SCC(=O)c2[nH]c(C)c(C(C)=O)c2C)nnc1-c1cccs1 | inconclusive: 11.2 µM [inhibitor, single point] | –

Structural class: those above with fluorine (14)
SMILES | Potency | activity change, negative = inhibition
Cc1cc(C(F)(F)F)n(-c2nc(C(=O)NN)cs2)n1 | inconclusive: 39.8 µM [inhibitor, partial curve, poor fit] | –
Fc1ccccc1OCC1CCCN(Cc2nc(CC3CC3)no2)C1 (centres undefined) | – | inactive: -7.07% [at 9.22 µM]
O=c1cc(CN2CCN(c3ccccc3F)CC2)c2cc3c(cc2o1)CCCC3 | active: 0.631 µM | –
COc1ccc(C(=O)NN(C)c2nc(C(F)(F)F)nc3ccccc23)cc1 | inconclusive: 35.5 µM [inhibitor, single point] | –
CCN(CC)S(=O)(=O)c1cc([N+](=O)[O-])ccc1NNC(=O)Nc1ccc(F)cc1 | inconclusive: 25.1 µM [inhibitor, single point] | –
CC(C1CC1)N(Cc1ccccc1)C(=S)Nc1cccc(C(F)(F)F)c1 (centres undefined) | inconclusive: 20 µM [inhibitor, single point] | –
CCNc1nc(Oc2ccc(Cl)cc2Cl)cc(C(F)(F)F)n1 | inconclusive: 25.1 µM [inhibitor, single point] | –
Cn1cc(C(=O)c2ccc(Cl)cc2Cl)cc1C(=O)N/N=C(\N)COc1cccc(C(F)(F)F)c1 | inconclusive: 11.2 µM [inhibitor, partial curve] | –
COc1cccc(C(C)NC(=O)Nc2cccc(C(F)(F)F)c2)c1 (centres undefined) | inconclusive: 3.16 µM [inhibitor, single point] | –
Cc1cc(C)n(-c2nc(Nc3ccccc3C(F)(F)F)nc(-n3nc(C)cc3C)n2)n1 | active: 10 µM | –
Cc1ccc2c(c1)c1nnc(SCC(=O)Nc3ccccc3C(F)(F)F)nc1n2CC(=O)O | inconclusive: 5.62 µM [activator, single point] | –
Cn1c(=O)cc(SCC(=O)NCCCN2CCN(c3ccc(F)cc3)CC2)c2ccccc21 | inconclusive: 15.8 µM [inhibitor, single point] | –
CC1CCN(C(=S)c2cn(Cc3ccccc3F)c3ccccc23)CC1 | active: 15.8 µM | –
COCc1cc(=O)[nH]c(-c2ccccc2OC(F)(F)F)n1 | – | inactive: -4.7% [at 9.22 µM]

From PubChem BioAssay AID1688 (National Center for Advancing Translational Sciences (NCATS), 2009)
